This is one part of the list.
Columns and labels:
Experiment in all cases: log2 fold change, soluble protein after heating vs DMSO (PISA); higher = thermal stabilisation; K562 cells, 10 uM, 30 min; active = over 0.2 and 3.5 SD of the protein, either way, in both replicates (recomputed)
[1] = compound: COC1=CC=C(C=C1)CN2C=CC3=C2C=C(C=C3)C(=O)NO
Method in brief: (§1)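 K562 cells at 2×10^6 cells/mL were given 10 μM compound for 30 min. Aliquots then went through 3 min of heating across 48°C-58°C, were pooled, and were extracted in PBS with 0.5% NP-40 at 4°C, and the supernatant after 21,000xg for 90 min was quantified by TMTpro 16plex LC-MS/MS with channel sums equalised. Thermal stability relative to control samples, from duplicates, is given as log2 fold change.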

The chains behind the UniProt entries cited, without tags or fusion partners. Where a name states a change or a piece, a line headed by the entry shows the natural chain unless it says otherwise.
UniProt O95202: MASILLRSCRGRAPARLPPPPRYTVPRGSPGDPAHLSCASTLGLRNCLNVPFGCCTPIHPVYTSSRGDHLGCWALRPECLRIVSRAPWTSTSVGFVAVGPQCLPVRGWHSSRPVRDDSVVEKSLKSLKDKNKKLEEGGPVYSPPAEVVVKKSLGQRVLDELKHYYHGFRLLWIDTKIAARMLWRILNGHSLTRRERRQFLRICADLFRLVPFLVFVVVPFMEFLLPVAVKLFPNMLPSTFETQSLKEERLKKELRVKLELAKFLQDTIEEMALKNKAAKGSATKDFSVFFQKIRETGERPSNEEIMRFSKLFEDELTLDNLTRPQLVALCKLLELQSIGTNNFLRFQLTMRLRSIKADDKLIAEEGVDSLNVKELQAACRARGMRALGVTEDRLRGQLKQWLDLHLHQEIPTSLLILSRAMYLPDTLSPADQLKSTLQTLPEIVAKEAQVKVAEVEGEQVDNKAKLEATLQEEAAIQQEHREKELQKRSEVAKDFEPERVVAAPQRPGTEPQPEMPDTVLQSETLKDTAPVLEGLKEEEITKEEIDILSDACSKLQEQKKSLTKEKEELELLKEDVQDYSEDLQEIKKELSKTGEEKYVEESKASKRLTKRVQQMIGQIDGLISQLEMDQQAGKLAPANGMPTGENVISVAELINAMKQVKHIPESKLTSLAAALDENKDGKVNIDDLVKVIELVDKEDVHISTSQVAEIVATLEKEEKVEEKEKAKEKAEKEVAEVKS
UniProt Q6YP21: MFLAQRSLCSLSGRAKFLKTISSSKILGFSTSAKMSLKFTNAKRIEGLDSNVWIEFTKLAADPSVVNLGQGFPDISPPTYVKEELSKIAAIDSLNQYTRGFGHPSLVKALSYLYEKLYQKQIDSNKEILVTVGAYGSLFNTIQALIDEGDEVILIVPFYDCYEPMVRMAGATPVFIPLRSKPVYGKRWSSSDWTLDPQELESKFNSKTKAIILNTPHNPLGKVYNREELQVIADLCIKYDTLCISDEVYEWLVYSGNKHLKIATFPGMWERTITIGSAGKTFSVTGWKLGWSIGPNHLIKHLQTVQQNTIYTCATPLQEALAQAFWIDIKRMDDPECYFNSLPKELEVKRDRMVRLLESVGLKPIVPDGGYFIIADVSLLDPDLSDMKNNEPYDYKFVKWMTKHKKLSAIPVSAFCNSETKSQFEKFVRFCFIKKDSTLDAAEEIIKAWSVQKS
UniProt Q15031: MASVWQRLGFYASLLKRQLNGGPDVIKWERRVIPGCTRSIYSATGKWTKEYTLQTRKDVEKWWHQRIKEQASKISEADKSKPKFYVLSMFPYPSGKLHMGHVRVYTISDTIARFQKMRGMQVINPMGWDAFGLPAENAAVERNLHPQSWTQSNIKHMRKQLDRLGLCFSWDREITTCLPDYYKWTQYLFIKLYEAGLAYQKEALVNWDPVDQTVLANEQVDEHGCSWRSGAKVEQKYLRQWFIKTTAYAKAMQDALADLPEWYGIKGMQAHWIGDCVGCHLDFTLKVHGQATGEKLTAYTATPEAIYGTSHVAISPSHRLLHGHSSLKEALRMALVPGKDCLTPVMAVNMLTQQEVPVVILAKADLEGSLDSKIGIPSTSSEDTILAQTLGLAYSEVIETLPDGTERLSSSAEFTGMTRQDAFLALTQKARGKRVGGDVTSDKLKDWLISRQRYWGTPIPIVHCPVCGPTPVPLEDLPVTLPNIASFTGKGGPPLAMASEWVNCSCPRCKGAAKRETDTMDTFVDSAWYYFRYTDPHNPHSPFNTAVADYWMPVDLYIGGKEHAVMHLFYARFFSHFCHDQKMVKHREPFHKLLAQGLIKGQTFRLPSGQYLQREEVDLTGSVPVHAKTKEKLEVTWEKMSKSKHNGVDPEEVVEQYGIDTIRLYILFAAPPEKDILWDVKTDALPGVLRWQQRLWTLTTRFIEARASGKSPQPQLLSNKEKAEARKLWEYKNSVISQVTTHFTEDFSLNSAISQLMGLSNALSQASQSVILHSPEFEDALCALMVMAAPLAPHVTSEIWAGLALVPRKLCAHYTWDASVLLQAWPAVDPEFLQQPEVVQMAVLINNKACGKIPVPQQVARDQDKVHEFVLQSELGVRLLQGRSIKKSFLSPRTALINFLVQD
UniProt Q8IWU2: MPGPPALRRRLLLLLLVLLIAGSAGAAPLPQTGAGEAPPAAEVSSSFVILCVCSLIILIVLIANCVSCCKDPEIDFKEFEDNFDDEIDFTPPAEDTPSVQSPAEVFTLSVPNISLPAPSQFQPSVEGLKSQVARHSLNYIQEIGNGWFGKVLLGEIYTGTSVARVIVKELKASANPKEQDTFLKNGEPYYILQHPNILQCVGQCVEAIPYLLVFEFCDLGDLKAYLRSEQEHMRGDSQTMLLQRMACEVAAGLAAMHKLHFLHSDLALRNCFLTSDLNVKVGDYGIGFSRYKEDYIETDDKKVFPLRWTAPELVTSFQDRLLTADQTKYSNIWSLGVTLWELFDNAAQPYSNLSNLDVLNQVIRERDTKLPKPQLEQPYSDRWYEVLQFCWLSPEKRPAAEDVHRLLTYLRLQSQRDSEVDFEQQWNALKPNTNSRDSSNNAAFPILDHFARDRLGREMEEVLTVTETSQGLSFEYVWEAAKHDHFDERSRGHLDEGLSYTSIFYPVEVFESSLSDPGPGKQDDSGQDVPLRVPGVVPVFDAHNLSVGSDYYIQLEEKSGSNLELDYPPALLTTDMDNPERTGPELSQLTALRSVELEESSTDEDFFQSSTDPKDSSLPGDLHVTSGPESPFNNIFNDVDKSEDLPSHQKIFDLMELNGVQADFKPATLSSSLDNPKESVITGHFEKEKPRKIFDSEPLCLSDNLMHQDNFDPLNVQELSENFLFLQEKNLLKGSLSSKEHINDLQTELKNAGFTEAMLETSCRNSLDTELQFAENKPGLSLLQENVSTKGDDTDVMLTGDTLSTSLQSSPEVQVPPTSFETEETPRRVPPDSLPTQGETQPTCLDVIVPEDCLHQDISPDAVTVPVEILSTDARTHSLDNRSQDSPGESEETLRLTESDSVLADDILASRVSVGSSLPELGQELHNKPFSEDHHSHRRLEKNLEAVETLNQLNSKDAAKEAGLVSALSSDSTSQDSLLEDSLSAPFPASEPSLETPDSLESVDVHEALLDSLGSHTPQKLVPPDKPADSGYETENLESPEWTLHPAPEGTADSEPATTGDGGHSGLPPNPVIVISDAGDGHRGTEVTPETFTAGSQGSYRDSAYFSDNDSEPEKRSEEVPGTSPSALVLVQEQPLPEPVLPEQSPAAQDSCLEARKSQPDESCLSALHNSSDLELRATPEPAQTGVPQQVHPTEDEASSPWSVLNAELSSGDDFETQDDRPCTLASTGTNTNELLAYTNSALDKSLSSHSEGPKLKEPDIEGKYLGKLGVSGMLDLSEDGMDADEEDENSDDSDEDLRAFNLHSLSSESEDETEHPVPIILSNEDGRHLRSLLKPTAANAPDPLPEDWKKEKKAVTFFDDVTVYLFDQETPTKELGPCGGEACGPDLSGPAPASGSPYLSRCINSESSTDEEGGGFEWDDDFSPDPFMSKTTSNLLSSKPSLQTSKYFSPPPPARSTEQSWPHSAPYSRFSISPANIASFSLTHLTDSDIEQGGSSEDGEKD
UniProt Q6PJG9: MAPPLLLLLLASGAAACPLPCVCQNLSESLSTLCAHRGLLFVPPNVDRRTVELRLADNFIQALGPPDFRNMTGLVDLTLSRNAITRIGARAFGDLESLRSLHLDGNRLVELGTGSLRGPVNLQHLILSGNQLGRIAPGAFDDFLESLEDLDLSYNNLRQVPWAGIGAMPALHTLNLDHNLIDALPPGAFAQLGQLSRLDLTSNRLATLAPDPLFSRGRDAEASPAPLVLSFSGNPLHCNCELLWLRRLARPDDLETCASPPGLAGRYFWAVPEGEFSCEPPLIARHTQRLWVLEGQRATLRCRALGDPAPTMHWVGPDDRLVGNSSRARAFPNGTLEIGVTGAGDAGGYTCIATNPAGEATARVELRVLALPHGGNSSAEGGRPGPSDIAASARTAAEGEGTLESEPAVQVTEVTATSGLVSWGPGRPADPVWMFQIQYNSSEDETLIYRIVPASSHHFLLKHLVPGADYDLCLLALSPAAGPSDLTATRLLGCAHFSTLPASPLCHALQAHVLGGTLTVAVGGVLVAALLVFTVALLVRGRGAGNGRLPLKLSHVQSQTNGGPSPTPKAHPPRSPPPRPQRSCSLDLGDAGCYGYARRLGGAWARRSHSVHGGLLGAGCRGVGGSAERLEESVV
UniProt P11279: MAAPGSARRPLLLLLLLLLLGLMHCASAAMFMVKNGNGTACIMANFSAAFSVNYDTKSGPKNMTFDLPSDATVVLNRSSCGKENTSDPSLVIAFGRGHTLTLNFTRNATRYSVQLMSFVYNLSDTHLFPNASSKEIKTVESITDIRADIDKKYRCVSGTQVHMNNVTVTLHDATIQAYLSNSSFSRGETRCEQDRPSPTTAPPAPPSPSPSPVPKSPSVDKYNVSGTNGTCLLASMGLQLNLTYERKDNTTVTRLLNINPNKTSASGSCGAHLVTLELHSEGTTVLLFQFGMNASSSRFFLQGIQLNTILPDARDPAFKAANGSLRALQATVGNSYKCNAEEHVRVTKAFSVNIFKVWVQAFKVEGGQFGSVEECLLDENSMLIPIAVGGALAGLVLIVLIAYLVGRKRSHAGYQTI
UniProt P01130: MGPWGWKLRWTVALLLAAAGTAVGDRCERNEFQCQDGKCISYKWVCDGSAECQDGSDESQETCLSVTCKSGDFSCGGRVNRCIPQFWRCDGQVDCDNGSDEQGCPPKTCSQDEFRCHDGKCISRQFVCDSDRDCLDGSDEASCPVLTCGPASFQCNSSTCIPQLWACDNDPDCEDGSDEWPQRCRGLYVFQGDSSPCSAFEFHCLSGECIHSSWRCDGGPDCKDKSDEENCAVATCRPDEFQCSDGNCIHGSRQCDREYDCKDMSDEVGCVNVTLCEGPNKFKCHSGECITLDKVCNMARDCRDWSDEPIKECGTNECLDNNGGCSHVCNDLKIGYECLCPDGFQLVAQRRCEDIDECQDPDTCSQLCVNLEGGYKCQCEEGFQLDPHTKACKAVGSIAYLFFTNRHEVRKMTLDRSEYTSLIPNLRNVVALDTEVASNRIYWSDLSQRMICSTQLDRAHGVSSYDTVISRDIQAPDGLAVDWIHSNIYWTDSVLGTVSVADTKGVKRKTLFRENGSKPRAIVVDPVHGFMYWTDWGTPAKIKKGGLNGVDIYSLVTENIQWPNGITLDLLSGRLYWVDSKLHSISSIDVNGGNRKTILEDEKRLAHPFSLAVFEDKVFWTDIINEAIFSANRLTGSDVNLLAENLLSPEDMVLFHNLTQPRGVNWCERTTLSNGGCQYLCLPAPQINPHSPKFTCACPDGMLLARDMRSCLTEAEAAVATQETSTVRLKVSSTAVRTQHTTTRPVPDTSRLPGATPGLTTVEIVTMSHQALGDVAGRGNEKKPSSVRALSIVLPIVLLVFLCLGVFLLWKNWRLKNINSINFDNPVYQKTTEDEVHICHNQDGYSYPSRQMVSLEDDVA
UniProt P83111: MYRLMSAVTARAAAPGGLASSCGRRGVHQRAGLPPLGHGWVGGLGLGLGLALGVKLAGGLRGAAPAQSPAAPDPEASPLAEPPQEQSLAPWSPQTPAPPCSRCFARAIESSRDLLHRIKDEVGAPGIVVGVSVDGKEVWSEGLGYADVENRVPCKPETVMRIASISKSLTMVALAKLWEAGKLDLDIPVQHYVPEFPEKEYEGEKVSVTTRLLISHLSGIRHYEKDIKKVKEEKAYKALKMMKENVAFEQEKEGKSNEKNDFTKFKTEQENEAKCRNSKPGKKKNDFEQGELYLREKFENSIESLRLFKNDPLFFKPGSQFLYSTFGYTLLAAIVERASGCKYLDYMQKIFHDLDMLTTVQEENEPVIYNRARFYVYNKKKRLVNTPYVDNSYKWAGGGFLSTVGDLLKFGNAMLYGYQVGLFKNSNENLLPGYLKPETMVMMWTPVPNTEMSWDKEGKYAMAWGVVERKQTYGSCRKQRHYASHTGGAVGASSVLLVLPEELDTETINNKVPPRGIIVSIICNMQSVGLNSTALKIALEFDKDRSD
UniProt Q16719: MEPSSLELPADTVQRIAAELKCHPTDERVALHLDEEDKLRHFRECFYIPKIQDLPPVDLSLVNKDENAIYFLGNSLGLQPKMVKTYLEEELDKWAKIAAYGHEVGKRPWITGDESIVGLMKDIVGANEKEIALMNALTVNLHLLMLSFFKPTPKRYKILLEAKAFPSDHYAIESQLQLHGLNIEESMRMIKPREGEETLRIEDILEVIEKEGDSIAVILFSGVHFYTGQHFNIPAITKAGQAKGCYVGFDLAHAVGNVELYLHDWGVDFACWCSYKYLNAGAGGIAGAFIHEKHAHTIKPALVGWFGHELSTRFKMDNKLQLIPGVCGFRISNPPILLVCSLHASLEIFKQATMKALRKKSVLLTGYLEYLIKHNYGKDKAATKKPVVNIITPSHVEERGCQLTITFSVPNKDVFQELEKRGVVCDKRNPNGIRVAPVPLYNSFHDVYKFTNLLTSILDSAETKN

filanesib = compound: CON(C)C(=O)N1N=C(c2cc(F)ccc2F)S[C@@]1(CCCN)c1ccccc1 [filanesib]
Method in brief: as §1

zotarolimus = compound: CO[C@H]1C[C@@H]2CC[C@@H](C)[C@@](O)(O2)C(=O)C(=O)N2CCCC[C@H]2C(=O)O[C@H]([C@H](C)C[C@@H]2CC[C@H](n3cnnn3)[C@H](OC)C2)CC(=O)[C@H](C)/C=C(\C)[C@@H](O)[C@@H](OC)C(=O)[C@H](C)C[C@H](C)/C=C/C=C/C=C/1C [zotarolimus]
Method in brief: as §1

idasanutlin = compound: COc1cc(C(=O)O)ccc1NC(=O)[C@@H]1N[C@@H](CC(C)(C)C)[C@](C#N)(c2ccc(Cl)cc2F)[C@H]1c1cccc(Cl)c1F [idasanutlin]
Method in brief: as §1

alisertib = compound: COc1cc(Nc2ncc3c(n2)-c2ccc(Cl)cc2C(c2c(F)cccc2OC)=NC3)ccc1C(=O)O [alisertib]
Method in brief: as §1

[2] = compound: COc1cc2nc(-c3cc(F)ccc3O)nc(N[C@@H]3CNC[C@H]3C(C)(C)O)c2cc1OC
Method in brief: as §1

gefitinib = compound: COc1cc2ncnc(Nc3ccc(F)c(Cl)c3)c2cc1OCCCN1CCOCC1 [gefitinib]
Method in brief: as §1

[3] = compound: COc1cccc2cc(-c3nc([C@H]4CC[C@H](C(=O)O)CC4)n4ncnc(N)c34)[nH]c12
Method in brief: as §1

lapatinib = compound: CS(=O)(=O)CCNCc1ccc(-c2ccc3ncnc(Nc4ccc(OCc5cccc(F)c5)c(Cl)c4)c3c2)o1 [lapatinib]
Method in brief: as §1

pictilisib = compound: CS(=O)(=O)N1CCN(Cc2cc3nc(-c4cccc5[nH]ncc45)nc(N4CCOCC4)c3s2)CC1 [pictilisib]
Method in brief: as §1

Measured: log2 fold change

LETM1 (UniProt O95202)
inactive: [1] 0.04 | filanesib -0.148 | zotarolimus 0.026 | idasanutlin -0.044 | alisertib -0.031 | [2] -0.149 | gefitinib -0.021 | [3] 0.004 | lapatinib -0.036 | pictilisib -0.004

LNPEP (UniProt Q9UIQ6)
inactive: [1] 0.001 | filanesib -0.014 | zotarolimus -0.03 | idasanutlin -0.014 | alisertib -0.01 | [2] 0.016 | gefitinib 0.01 | [3] 0.058 | lapatinib 0.003 | pictilisib 0.04

LMAN2L isoform 2 (UniProt Q9H0V9)
inactive: [1] 0.045 | filanesib -0.11 | zotarolimus -0.004 | idasanutlin -0.043 | alisertib -0.067 | [2] 0.032 | gefitinib 0.002 | [3] 0.018 | lapatinib 0.005 | pictilisib -0.079

KYAT3 (UniProt Q6YP21)
inactive: [1] -0.049 | filanesib -0.019 | zotarolimus -0.017 | idasanutlin -0.037 | alisertib -0.019 | [2] 0.024 | gefitinib -0.003 | [3] 0.063 | lapatinib 0.014 | pictilisib -0.018

LARS2 (UniProt Q15031)
inactive: [1] 0.048 | filanesib -0.113 | zotarolimus 0.036 | idasanutlin 0.002 | alisertib -0.015 | [2] 0.012 | gefitinib -0.018 | [3] 0.032 | lapatinib 0.032 | pictilisib 0.023

LMTK2 (UniProt Q8IWU2)
inactive: [1] 0.039 | filanesib -0.055 | zotarolimus -0.139 | idasanutlin 0.05 | alisertib -0.053 | [2] 0.043 | [3] -0.06 | lapatinib 0.095 | pictilisib 0.043

KTI12 (UniProt Q96EK9)
inactive: [1] 0.057 | filanesib -0.042 | zotarolimus 0.071 | idasanutlin 0.1 | alisertib 0.056 | [2] 0.074 | gefitinib -0.011 | [3] 0.034 | lapatinib 0.008 | pictilisib -0.02

LRFN4 (UniProt Q6PJG9)
inactive: [1] -0.137 | filanesib -0.07 | zotarolimus 0.004 | idasanutlin 0.101 | alisertib -0.03 | [2] -0.173 | [3] 0.218 | lapatinib -0.063 | pictilisib 0.083

LRBA (UniProt P50851)
inactive: [1] -0.004 | filanesib -0.06 | zotarolimus 0.002 | idasanutlin -0.113 | alisertib -0.017 | [2] 0.029 | gefitinib -0.008 | [3] 0.031 | lapatinib 0.009 | pictilisib -0.015

LARP4B (UniProt Q92615)
inactive: [1] 0.035 | filanesib 0.056 | zotarolimus 0.004 | idasanutlin 0.053 | alisertib -0.054 | [2] -0.108 | gefitinib 0.011 | [3] -0.06 | lapatinib 0.081 | pictilisib -0.009

LRBA, A0A494BZW2
inactive: [1] 0.006 | filanesib -0.136 | zotarolimus -0.127 | idasanutlin -0.207 | alisertib 0.001 | [2] 0.453 | gefitinib -0.026 | [3] 0.046 | lapatinib -0.097 | pictilisib 0.095

LPIN2 (UniProt Q92539)
inactive: [1] 0.039 | filanesib -0.021 | zotarolimus 0.033 | idasanutlin -0.004 | alisertib -0.019 | [2] 0.026 | gefitinib -0.068 | [3] 0.064 | lapatinib -0.055 | pictilisib 0.133

LAMP1 (UniProt P11279)
inactive: [1] -0.112 | filanesib 0.031 | zotarolimus -0.003 | idasanutlin -0.043 | alisertib 0.055 | [2] -0.003 | gefitinib 0.022 | [3] 0.071 | lapatinib 0 | pictilisib 0.024

Two successive records from above, quoted:
LNPEP (UniProt Q9UIQ6)
inactive: [1] 0.001 | filanesib -0.014 | zotarolimus -0.03 | idasanutlin -0.014 | alisertib -0.01 | [2] 0.016 | gefitinib 0.01 | [3] 0.058 | lapatinib 0.003 | pictilisib 0.04

LMAN2L isoform 2 (UniProt Q9H0V9)
inactive: [1] 0.045 | filanesib -0.11 | zotarolimus -0.004 | idasanutlin -0.043 | alisertib -0.067 | [2] 0.032 | gefitinib 0.002 | [3] 0.018 | lapatinib 0.005 | pictilisib -0.079

(further entries)

LONP2 (UniProt Q86WA8)
inactive: [1] -0.002 | filanesib -0.019 | zotarolimus -0.02 | idasanutlin -0.177 | alisertib -0.115 | [2] 0.375 | gefitinib 0.129 | [3] 0.015 | lapatinib 0.1 | pictilisib -0.041

LMNB2 (UniProt Q03252)
inactive: [1] -0.023 | filanesib 0.1 | zotarolimus -0.064 | idasanutlin 0.099 | alisertib 0.004 | [2] -0.005 | gefitinib -0.001 | [3] 0.069 | lapatinib 0.059 | pictilisib 0.03

LMF2 (UniProt Q9BU23)
inactive: [1] -0.041 | filanesib -0.011 | zotarolimus -0.027 | idasanutlin -0.02 | alisertib -0.025 | [2] -0.014 | gefitinib 0.013 | [3] -0.021 | lapatinib 0.062 | pictilisib -0.095

LRRC47 (UniProt Q8N1G4)
inactive: [1] 0.105 | filanesib -0.09 | zotarolimus 0.034 | idasanutlin -0.029 | alisertib -0.046 | [2] -0.003 | gefitinib -0.002 | [3] 0.03 | lapatinib 0 | pictilisib 0.046

LDLR (UniProt P01130)
inactive: [1] -0.012 | filanesib 0.005 | zotarolimus -0.07 | idasanutlin 0.009 | alisertib 0.073 | [2] -0.017 | gefitinib 0.095 | [3] 0.008 | lapatinib 0.042 | pictilisib 0.078

LACTB (UniProt P83111)
inactive: [1] -0.095 | filanesib -0.02 | zotarolimus -0.021 | idasanutlin 0.066 | alisertib -0.107 | [2] -0.109 | gefitinib -0.031 | [3] -0.001 | lapatinib 0.085 | pictilisib 0.067

LMBR1 isoform 3 (UniProt Q8WVP7)
inactive: [1] -0.165 | filanesib -0.267 | zotarolimus -0.033 | idasanutlin 0.156 | alisertib 0.016 | [2] -0.218 | [3] 0.029 | lapatinib -0.043 | pictilisib 0.043

LMAN2 (UniProt Q12907)
inactive: [1] -0.014 | filanesib -0.071 | zotarolimus -0.002 | idasanutlin -0.047 | alisertib -0.024 | [2] 0 | gefitinib -0.003 | [3] 0.025 | lapatinib 0.02 | pictilisib 0.041

LCMT1 (UniProt Q9UIC8)
inactive: [1] -0.134 | filanesib -0.046 | zotarolimus 0.052 | idasanutlin -0.126 | alisertib -0.066 | [2] 0.053 | gefitinib 0.015 | [3] 0.023 | lapatinib 0.011 | pictilisib 0.009

KYNU (UniProt Q16719)
inactive: [1] 0.013 | filanesib -0.003 | zotarolimus -0.022 | idasanutlin 0.045 | alisertib 0.012 | [2] -0.006 | gefitinib 0.002 | [3] 0.128 | lapatinib 0.006 | pictilisib -0.055

LRP8 (UniProt E9PP15)
inactive: [1] 0.257 | filanesib 0.192 | zotarolimus 0.029 | idasanutlin -0.042 | alisertib -0.041 | [2] 0.023 | [3] -0.071 | lapatinib -0.05

LMNA (UniProt P02545)
inactive: [1] -0.093 | filanesib 0.088 | zotarolimus 0.018 | idasanutlin 0.093 | alisertib 0.096 | [2] -0.112 | gefitinib -0.014 | [3] 0 | lapatinib 0.028 | pictilisib 0.008
